Assay results published in PubChem BioAssay AID2685 (National Center for Advancing Translational Sciences (NCATS), 2010).
The list shows a part of the results. Shown are side measurements of this screen, not its main read-out; they come without a call. Most of these compounds were active or inconclusive in the main read-out, so they are no random draw. Potencies come from curve fits of mixed quality, noted in brackets.

Experiment: qHTS Assay for Lipid Storage Modulators in Drosophila S3 Cells;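 as to cell number change: cells counted by Cell Tracker Red CMTPX staining in the red channel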
Settings: BODIPY lipid droplet fluorescence, 18-24 h; for cell number change: measured here: cell count max response, cells fed with added oleic acid
Procedure, shortened: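 Laser-scanning cytometry quantifies lipid droplet accumulation (500–530 nm total intensity; droplet/cell object ratio) in oleic acid-fed (400 uM added) Drosophila S3 cells treated with a concentration series. 20 uM Triacsin C defined 100% inhibition.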

[1] = measured here: cell number channel AC50, cells fed with added oleic acid
[2] = measured here: lipid fluorescence (Fed channel) AC50, cells fed with added oleic acid

Structure (SMILES) | AC50 [1] | cell number change | AC50 [2]
COc1ccc(C(c2nnnn2C(C)(C)C)N2CCN(c3nc4ccccc4s3)CC2)cc1OC (stereo not drawn) | 0.58 µM [rising, single point] | – | –
Cc1ccc(CCN2CC(C(=O)NCCCN(C)Cc3ccccc3)CC2=O)cc1 (stereo not drawn) | – | -9.5% | –
COc1ccc(S(=O)(=O)NCC2CCCN(Cc3ccc(C)o3)C2)cc1 (stereo not drawn) | – | 12% | 13 µM [falling, single point]
CC1=C(C#N)C(c2ccc(O)cc2)C2=C(CCCC2=O)N1 (stereo not drawn) | 25.9 µM [rising, single point] | 73.4% | –
Cc1cccc(N2CC(C(=O)Nc3ccc(S(=O)(=O)N4CCCCC4)cc3)CC2=O)c1C (stereo not drawn) | – | 12.8% | 0.58 µM [falling, partial curve, poor fit]
COc1ccc(C(=O)N/N=C/c2ccc(SC)cc2)cc1 | – | 33.5% | –
Cc1cnc(NC(=O)CSc2ccccc2)s1 | 18.4 µM [rising, single point] | 46.5% | 1.84 µM [falling, partial curve]
CSc1nc(N)nc(SCC(=O)Nc2ccc(Cl)cc2)c1C#N | – | -3.96% | –
Cc1ccccc1CNC(=O)C(=O)NCC1CCCN1S(=O)(=O)c1ccccc1 (stereo not drawn) | – | 22.7% | 1.64 µM [rising, partial curve]
COc1ccc(OC)c(-c2csc(NC(=O)COC(=O)C3CCC3)n2)c1 | – | 8.43% | 0.058 µM [falling, full curve, poor fit]
CC(C)(C)c1ccc(OCC(=O)NC2CCS(=O)(=O)C2)cc1 (stereo not drawn) | – | 20% | 13 µM [rising, partial curve]
CCCn1c(SCC(=O)NC2CCCc3ccccc32)n[nH]c1=O (stereo not drawn) | 0.13 µM [rising, single point] | – | –
CS(=O)(=O)N1CCC(C(=O)Nc2ccccc2Cl)CC1 | – | 3.44% | 0.116 µM [rising, full curve, poor fit]
O=C(O)C1CCCN1C(=O)Nc1ccccc1 (stereo not drawn) | – | -4.01% | –
COc1cccc(NC(=O)COc2cc(O)c3c(c2)OC(C)(C)CC3=O)c1 | – | -5.5% | 29.1 µM [falling, single point]
O=Cc1cn(CC(=O)N2CCc3ccccc32)c2ccccc12 | 0.731 µM [falling, partial curve, poor fit] | – | 0.731 µM [falling, full curve]
Nc1[nH]n(-c2ccccc2)c(=O)c1N=Nc1ccc2c(c1)OCCO2 | – | -28.7% | 18.4 µM [falling, single point]
COc1ccc(C(=O)NCCCN2CCN(CCCNC(=O)c3ccc(OC)c(OC)c3)CC2)cc1OC | – | -9.78% | 1.16 µM [rising, full curve]
CCOC(=O)N1CCN(c2cc(N)c([N+](=O)[O-])cc2F)CC1 | – | -25.1% | 25.9 µM [falling, single point]
CCN(CCn1cccn1)C(=O)CC1C(=O)NCCN1CCc1ccccc1 (stereo not drawn) | – | 16% | –

Structure (SMILES) | AC50 [1] | cell number change | AC50 [2]
O=c1c2ccccc2c(/C=N/c2nnc(Cc3ccccc3)s2)c(O)n1-c1ccc(Cl)cn1 | – | -2.08% | –
O=C(CSc1nnc(-c2n[nH]c3ccccc23)n1-c1ccccc1)Nc1cccc(Cl)c1 | 4.11 µM [rising, full curve] | 36.3% | 6.51 µM [rising, single point]
c1ccc(OCCSc2nnc3sc4ccccc4n23)cc1 | – | 6.68% | 29.1 µM [rising, single point]
COc1ccc(-c2nnc(SCC(=O)N3CCC(Cc4ccccc4)CC3)o2)cc1OC | 2.06 µM [rising, full curve, poor fit] | 28.5% | 0.00517 µM [rising, full curve, poor fit]
COc1ccc(C(=O)N(Cc2ccc(N(C)C)cc2)C2CCS(=O)(=O)C2)cc1 (stereo not drawn) | – | -13% | –
Cc1cccc(NC(=O)c2ccccc2NC(=O)C2CCCCC2)c1C | – | 1.16% | 29.1 µM [falling, single point]
COc1ccc(CC2NCCC3(O)CCCCC23)cc1 (stereo not drawn) | 4.11 µM [falling, single point] | 23.8% | 2.91 µM [falling, partial curve]
N#CC1=C2SCN(Cc3ccccc3)CN2C(=O)CC1c1ccccc1F (stereo not drawn) | – | 12.8% | 0.0058 µM [rising, full curve, poor fit]
Cc1ccc(-n2[nH]c(C)c(/C=N/Nc3ccc([N+](=O)[O-])cc3[N+](=O)[O-])c2=O)cc1 | – | 8.27% | –
CC(C)(C)OC(=O)NCCc1nnc(SCc2c(Cl)cccc2Cl)o1 | 5.17 µM [rising, partial curve, poor fit] | 60.1% | –
C/C(=N\NC(=O)c1nnn(-c2nonc2N)c1CSc1ccccc1)c1ccc2c(c1)OCO2 | – | -1.9% | –
CC1(C)Cc2c(c(N3CCOCC3)nc3snc(NC(=O)c4ccccc4)c23)CO1 | 0.259 µM [rising, full curve, poor fit] | 31.6% | 18.4 µM [rising, single point]
CCc1nc2ccccc2c(C(=O)Nc2ccc(F)cc2)c1C | – | 19.2% | 29.1 µM [rising, single point]
CCN1C(=NCCc2cccnc2)N[C@@H](c2ccccc2)C(C(=O)OC)=C1C | – | 6.89% | 6.51 µM [rising, single point]
O=C(O)c1cccc(COCC(F)(F)C(F)F)c1 | – | -1.03% | 11.6 µM [rising, single point]
COC(=O)C1=C(CSc2nnnn2C)NC(=O)NC1c1cc(C)ccc1C (stereo not drawn) | – | -7.78% | 9.2 µM [rising, partial curve]
C[C@H](NC(=O)c1ccco1)C(=O)Nc1ccc2c(c1)OCO2 | – | 3.2% | –
O=C(CCCC(=O)N1CCCc2ccccc21)N1CCCc2ccccc21 | – | -10.9% | 0.92 µM [falling, full curve, poor fit]
Cc1ccc(S(=O)(=O)NCC(=O)NCC(=O)N(C)Cc2ccc3ccccc3c2)cc1C | 0.103 µM [rising, full curve, poor fit] | -5.42% | 1.84 µM [falling, partial curve]
CC(OC(=O)c1cccc(S(=O)(=O)N(C)C)c1)C(=O)NCc1ccc2c(c1)OCO2 (stereo not drawn) | 1.16 µM [falling, single point] | – | –

Complete entries, quoted from the list.
N#CC1=C2SCN(Cc3ccccc3)CN2C(=O)CC1c1ccccc1F (stereo not drawn) as listed: cell number change: 12.8%; AC50 [2]: 0.0058 µM [rising, full curve, poor fit]
O=C(CCCC(=O)N1CCCc2ccccc21)N1CCCc2ccccc21 as listed: cell number change: -10.9%; AC50 [2]: 0.92 µM [falling, full curve, poor fit]
